# These are yes or no findings as the source states them, for the method shown. In cells and extracts the contact can be indirect. These calls come from enrichment with a bait or labelling near it, and not all partners need be listed.
# By UniProt entry, the sequences of proteins in these tests, tags left out. Residues count along the entry.
# UniProt P78527: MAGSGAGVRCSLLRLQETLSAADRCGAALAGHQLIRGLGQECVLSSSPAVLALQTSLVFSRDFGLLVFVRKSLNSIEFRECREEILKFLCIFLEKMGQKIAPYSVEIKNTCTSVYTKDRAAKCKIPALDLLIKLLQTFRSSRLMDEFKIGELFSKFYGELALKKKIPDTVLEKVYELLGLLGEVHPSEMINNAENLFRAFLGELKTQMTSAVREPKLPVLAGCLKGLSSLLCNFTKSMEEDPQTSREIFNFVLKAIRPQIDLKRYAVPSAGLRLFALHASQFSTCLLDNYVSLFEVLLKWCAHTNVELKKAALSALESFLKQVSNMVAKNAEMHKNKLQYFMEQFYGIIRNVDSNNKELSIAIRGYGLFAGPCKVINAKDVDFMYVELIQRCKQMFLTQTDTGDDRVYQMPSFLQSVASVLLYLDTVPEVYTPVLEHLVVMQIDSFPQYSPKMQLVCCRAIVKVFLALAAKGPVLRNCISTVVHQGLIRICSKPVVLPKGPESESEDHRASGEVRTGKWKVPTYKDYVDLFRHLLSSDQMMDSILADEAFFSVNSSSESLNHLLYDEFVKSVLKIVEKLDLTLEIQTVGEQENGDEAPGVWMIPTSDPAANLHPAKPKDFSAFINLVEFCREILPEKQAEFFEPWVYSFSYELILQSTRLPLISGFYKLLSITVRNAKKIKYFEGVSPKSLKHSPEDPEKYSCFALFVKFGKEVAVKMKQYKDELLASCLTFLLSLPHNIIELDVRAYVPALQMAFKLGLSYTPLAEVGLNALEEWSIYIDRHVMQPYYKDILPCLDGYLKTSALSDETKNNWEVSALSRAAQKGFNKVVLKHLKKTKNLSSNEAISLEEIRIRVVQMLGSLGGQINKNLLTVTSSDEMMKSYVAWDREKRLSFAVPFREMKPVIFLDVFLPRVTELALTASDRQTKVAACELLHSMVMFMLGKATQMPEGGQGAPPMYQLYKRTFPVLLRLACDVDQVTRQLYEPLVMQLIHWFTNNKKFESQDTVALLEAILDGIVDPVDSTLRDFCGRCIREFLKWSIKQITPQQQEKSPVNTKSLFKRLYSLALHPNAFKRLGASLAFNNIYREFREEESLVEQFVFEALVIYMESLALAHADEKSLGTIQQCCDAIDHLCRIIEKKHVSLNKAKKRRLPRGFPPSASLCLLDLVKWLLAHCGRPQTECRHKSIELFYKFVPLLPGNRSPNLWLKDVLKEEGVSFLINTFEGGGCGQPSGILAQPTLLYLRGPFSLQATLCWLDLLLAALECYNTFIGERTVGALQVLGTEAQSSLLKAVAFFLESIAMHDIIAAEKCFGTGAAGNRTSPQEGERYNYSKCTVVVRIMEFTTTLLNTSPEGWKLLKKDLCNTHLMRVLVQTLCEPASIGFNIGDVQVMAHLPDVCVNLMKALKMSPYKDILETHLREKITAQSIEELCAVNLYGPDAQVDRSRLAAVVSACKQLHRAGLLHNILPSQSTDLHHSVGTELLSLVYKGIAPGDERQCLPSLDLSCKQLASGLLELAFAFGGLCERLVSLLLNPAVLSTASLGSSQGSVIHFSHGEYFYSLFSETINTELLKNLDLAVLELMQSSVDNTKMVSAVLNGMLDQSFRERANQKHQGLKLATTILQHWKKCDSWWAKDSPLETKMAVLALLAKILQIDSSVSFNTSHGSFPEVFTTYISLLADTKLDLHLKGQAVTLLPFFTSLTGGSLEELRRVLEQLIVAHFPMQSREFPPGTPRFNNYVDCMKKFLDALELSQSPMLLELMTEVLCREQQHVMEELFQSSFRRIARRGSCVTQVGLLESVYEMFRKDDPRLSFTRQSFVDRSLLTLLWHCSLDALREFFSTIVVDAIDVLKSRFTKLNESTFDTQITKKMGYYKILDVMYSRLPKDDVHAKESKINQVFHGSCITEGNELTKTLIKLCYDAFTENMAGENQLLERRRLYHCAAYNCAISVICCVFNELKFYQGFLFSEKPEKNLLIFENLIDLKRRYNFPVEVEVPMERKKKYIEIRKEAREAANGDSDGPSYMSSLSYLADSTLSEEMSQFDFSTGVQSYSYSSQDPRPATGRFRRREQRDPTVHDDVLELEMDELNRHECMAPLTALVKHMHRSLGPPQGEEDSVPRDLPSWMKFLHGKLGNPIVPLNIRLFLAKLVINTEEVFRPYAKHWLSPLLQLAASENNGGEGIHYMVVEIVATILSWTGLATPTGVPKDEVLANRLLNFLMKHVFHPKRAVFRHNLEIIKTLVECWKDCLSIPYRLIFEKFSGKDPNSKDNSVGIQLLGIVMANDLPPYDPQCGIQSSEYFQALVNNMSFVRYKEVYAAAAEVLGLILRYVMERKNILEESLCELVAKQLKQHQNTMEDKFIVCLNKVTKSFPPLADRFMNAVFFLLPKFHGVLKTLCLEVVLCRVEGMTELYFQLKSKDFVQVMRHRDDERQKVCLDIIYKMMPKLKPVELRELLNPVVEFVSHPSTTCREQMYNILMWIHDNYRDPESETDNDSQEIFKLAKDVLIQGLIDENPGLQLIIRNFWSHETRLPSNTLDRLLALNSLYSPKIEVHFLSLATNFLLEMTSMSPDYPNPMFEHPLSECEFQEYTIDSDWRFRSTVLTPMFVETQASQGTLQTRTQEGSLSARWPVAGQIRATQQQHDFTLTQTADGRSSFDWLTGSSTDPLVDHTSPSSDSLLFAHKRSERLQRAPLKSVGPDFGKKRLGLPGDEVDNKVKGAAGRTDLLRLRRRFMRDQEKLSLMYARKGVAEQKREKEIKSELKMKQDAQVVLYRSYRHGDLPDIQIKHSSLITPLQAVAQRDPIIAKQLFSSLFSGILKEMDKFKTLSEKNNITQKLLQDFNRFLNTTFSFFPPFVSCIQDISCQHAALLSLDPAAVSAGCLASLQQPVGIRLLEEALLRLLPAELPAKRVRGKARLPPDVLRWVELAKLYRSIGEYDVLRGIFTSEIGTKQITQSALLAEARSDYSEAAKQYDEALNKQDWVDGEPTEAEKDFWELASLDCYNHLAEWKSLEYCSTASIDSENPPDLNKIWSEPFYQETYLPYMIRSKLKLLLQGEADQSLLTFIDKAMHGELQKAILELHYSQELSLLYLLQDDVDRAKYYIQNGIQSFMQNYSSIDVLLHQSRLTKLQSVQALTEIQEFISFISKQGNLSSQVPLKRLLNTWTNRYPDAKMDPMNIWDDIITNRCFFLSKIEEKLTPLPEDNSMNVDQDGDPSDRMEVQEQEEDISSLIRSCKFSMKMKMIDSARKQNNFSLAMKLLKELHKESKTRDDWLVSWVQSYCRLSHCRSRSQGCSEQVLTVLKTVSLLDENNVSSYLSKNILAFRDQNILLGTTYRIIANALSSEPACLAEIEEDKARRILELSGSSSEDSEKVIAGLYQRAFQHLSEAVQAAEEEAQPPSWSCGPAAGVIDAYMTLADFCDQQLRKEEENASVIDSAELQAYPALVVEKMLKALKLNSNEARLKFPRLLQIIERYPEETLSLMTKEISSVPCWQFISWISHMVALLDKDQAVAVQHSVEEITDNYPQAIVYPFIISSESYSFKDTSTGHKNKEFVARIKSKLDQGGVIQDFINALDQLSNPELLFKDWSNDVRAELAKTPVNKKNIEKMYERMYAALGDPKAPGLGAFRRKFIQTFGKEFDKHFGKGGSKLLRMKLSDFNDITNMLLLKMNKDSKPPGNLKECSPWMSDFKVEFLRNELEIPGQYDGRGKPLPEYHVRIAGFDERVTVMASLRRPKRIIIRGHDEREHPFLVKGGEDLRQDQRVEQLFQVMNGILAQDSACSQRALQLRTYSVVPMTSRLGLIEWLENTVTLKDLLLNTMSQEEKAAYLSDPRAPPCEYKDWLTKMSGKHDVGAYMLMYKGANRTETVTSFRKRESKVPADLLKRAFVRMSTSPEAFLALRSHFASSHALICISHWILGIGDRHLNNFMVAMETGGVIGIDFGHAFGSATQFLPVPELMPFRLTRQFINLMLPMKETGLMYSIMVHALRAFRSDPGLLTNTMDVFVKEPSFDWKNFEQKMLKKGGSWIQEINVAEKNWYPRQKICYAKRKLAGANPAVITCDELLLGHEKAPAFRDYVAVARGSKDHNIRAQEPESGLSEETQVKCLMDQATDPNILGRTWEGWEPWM
# UniProt Q9NZQ7, residues 19-290: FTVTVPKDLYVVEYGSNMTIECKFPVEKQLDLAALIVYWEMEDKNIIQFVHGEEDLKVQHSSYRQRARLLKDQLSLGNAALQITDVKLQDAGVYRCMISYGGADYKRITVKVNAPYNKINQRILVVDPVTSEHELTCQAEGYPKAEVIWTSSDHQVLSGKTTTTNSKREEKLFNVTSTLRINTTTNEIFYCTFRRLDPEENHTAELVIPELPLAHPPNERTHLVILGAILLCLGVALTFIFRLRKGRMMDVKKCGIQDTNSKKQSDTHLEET
# Biological target: DNA-dependent protein kinase (DNA-PK), PRKDC encoded protein DNA-PKcs, in HEK-293 T cells (human) (UniProt P78527)
# Assay: affinity purification with mass spectrometry; DNA-PK antibody pull-down in HEK-293 T cells, then modification mass spectrometry analysis
substance,measurement,value
"Programmed cell death 1 ligand 1 (PD-L1), in HEK-293 T cells (from UniProt Q9NZQ7 19-290)",binding,binds

# Source: publication PMC10718020
